This note sets out measurements from PubChem BioAssay AID651803 (National Center for Advancing Translational Sciences (NCATS), 2012).

Amino acid sequences for entries named in this document (tags omitted). A change or cut given only in a name is not applied to a line headed by its entry.
UniProt P11308: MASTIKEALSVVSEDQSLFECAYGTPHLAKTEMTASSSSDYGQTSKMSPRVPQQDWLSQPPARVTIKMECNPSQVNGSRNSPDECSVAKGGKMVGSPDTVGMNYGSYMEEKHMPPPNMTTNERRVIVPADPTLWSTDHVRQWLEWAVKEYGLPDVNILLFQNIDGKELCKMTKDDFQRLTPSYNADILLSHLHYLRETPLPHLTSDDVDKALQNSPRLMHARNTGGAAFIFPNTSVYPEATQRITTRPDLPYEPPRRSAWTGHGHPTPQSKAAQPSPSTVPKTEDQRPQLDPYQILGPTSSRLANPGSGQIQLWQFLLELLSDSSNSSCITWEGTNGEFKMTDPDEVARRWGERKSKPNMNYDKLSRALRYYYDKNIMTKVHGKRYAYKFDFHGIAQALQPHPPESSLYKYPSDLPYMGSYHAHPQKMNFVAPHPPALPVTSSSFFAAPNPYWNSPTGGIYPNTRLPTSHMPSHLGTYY

Screen size: about 1,200 compounds; fewer than 10 were called active. Calls follow the shape of the dose curve; as a rule, active = well fitted curve in the direction sought with a large enough effect; inconclusive = small, poorly fitted or top-dose-only effect, or another doubt; inactive = no such curve, though single readings can be large or run the other way. The list shows a part of the results.

This experiment has as its target Transcriptional regulator ERG (Homo sapiens) (UniProt P11308). As to the kind of experiment: qHTS for Small Molecule Inhibitors of the ERG Ets/DNA interaction: TR assay against cherry picks. Also: % of control where 0% means no effect. To be noted: ERG Ets domain-DNA fluorescence polarization, Texas red probe; at 154 µM (top of the series). An outline of the steps: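 Polarization read sequentially for fluorescein (ex 480/em 535 nm) and Texas red (ex 555/em 632 nm) probes, 5 nM and 100 nM solutions, displaced from His-ERG Ets domain (1 uM solution), pH 7.5 Tris/KCl/EDTA/DTT buffer.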
In general terms: In qHTS, concentration-response curves come from the screen itself.
Turning to `CCC(Oc1ccccc1F)C(=O)NCCCn1ccnc1` (configuration not stated), the activity change, negative = inhibition was inactive: 5.82%.
Under `CCc1ccc(NC(=O)/C(C#N)=C/c2cc3ccc(C)cc3nc2N2CCOCC2)cc1` stands inactive: 24.7%; under `Cc1cc(C)cc(N2C(=O)c3nccnc3C2=O)c1`, inactive: 5.53%.
Under `CCOc1cc(CNCC2CCCN2CC)cc(Cl)c1OC` (configuration not stated) stands inactive: 1.51%; under `CS(=O)(=O)N(CC(=O)Nc1ccccc1)c1cccc(Cl)c1Cl`, inactive: -21.4%.
In the case of `CCOc1ccc(-c2ncncc2-c2ccccc2OC)c(O)c1` it was inactive: -4.28%; in that of `Cc1nc(-c2ccc(F)cc2)c(CC(=O)Nc2ccc(C)c(S(=O)(=O)N3CCOCC3)c2)s1`, inactive: -0.727%.
Turning to `Cc1cc2cc(CNC(=O)c3ccc(S(=O)(=O)N4CCCCC4)cc3)ccc2n1C`, the activity change, negative = inhibition was inactive: 20.1%.
As for `CCOC(=O)c1oc2cc(OCC(=O)OC)ccc2c(=O)c1-c1ccc(OC)c(OC)c1`, the activity change, negative = inhibition is inactive: 2.07%.
In the case of `COCCOC1CCN(Cc2cn(Cc3ccccc3)nc2-c2cc3ccccc3o2)CC1` it was inactive: -2.78%; in that of `COc1ccc(/C=C/C(=O)Nc2c(C(=O)O)[nH]c3ccccc23)cc1OC`, inactive: -17.3%; in that of `CC(NC(=O)c1ccco1)c1nc(-c2ccc(C(C)(C)C)cc2)no1` (configuration not stated), inactive: 0%.
In the case of `CCN(CC)c1ccc([N+](=O)[O-])cc1C(=O)O` it was inactive: 5.41%; in that of `COc1ccc(CCNC(=O)Cn2c(=O)n(CCCC(=O)NCc3ccco3)c(=O)c3sccc32)cc1OC`, inactive: 1.75%; in that of `O=C(CN1CCCCC1)Nc1ccc(Br)cc1[N+](=O)[O-]`, inactive: -9.83%.
As to `CC(=O)NCc1ccc(S(=O)(=O)N2CCN(c3ccccn3)CC2)cc1`, the activity change, negative = inhibition is inactive: 2.4%.
`COc1ccc(N2CC(NC(=O)c3ccc4c(c3)OCO4)CC2=O)cc1` (configuration not stated): the activity change, negative = inhibition was inactive: -3.95%.
In the case of `NC(=O)c1ccc(N2CCN(c3ccccc3O)CC2)c([N+](=O)[O-])c1` it was inactive: -4.48%.
Under `CN(C)c1nc(N)nc(Cn2nnc(-c3ccc(C(F)(F)F)cc3)n2)n1` stands inactive: 3.53%; under `Nc1nc(Cl)c2ncn(C3OC(CO)C(O)C3O)c2n1` (configuration not stated), inactive: 0%; under `O=C(NCc1ccc2c(c1)OCO2)C1CCN(S(=O)(=O)N2CCCCC2)CC1`, inactive: 5.53%.
In the case of `O=C1C(SCCO)=C(SCCO)C(=O)c2ccccc21` it was inactive: -12.1%.
`CNC(=S)NNc1nncc2ccccc12`: the activity change, negative = inhibition is inactive: -0.784%.
In the case of `COc1ccc(CC(=O)Nc2ccc(-c3nnc(-c4ccccc4)o3)cc2)cc1` it was inactive: 5.64%.
In the case of `CCC(OC(=O)CN1C(=O)C(=O)c2ccccc21)C(=O)Nc1ccc(S(N)(=O)=O)cc1` (configuration not stated) it was inactive: 7.55%; in that of `Cc1ccc(NC(=O)Cn2cc(C(=O)C3CC3)c3ccccc32)c(C)c1`, inactive: 7.02%.
Under `COc1ccc(NC(=O)C2C3CCC(O3)C2C(=O)O)c(C)c1` (configuration not stated) stands inactive: 2.89%; under `CC1CCCC(NC(=O)COC(=O)/C=C/c2ccco2)C1C` (configuration not stated), inactive: 2.09%; under `Cc1nc2nc[nH]n2c(=O)c1NS(=O)(=O)c1ccc(F)cc1`, inactive: 10.3%.
Regarding `Cc1cccc(NC(=O)c2ccccc2NC(=O)c2ccco2)c1`, the activity change, negative = inhibition is inactive: -3.95%.
Under `CCOC(=O)C1CCCN(C(=O)c2nn(-c3ccc(C)cc3)c(=O)n(C)c2=O)C1` (configuration not stated) stands inactive: -21.4%.
Under `Cc1cccc(-c2cnn(-c3cccc([N+](=O)[O-])c3)c2N)c1` stands inactive: -15.3%.
In the case of `CCC(C)NCCOc1ccc(C)cc1[N+](=O)[O-]` (configuration not stated) it was inactive: 11.8%; in that of `Cc1ccc(-c2[nH]c(-c3ccc(C(=O)O)cc3)nc2-c2ccccc2)cc1`, inactive: -7.62%.
Regarding `O=C(CNCc1ccc(F)cc1)Nc1ccccc1[N+](=O)[O-]`, the activity change, negative = inhibition was inactive: -22%.
Consider `C=CCOc1ccc(/C=N/NC(=O)C2CCCC2)cc1OCC`, for which the activity change, negative = inhibition is inactive: 5.77%.
In the case of `Cc1ccc([N+](=O)[O-])c2c1C(N1CC(C)OC(C)C1)C(C)(C)O2` (configuration not stated) it was inactive: 5.79%; in that of `C=CCn1c(=O)c2ccccc2n2c(SCc3nc(N)nc(Nc4ccccc4C)n3)nnc12`, inactive: -11.2%.
Consider `N#Cc1c(NC(=O)CCCN2C(=O)c3ccccc3C2=O)oc(-c2ccccc2)c1-c1ccccc1`, for which the activity change, negative = inhibition is inactive: 3.5%.
In the case of `CCSc1nc2c(c(=O)[nH]c(=O)n2C)n1CC(O)COc1ccccc1` (configuration not stated) it was inactive: 3.35%; in that of `CC(=O)Nc1ccc(SCC(=O)N(C)C2CCS(=O)(=O)C2)cc1` (configuration not stated), inactive: -0.814%; in that of `Oc1ccc(NCc2ccccc2OCc2ccccc2Cl)cc1`, inactive: -3.49%.
With `COC(=O)[C@H](Cc1ccccc1)NC(=O)Nc1ccc(OC)cc1`, the activity change, negative = inhibition is inactive: 1.28%.
Under `COc1ccc(Cl)cc1NC(=O)COC(C)=O` stands inactive: 12.1%; under `O=S(=O)(c1ccccc1)c1cnc(-c2cccnc2)nc1-c1ccccc1`, inactive: 4.25%.
Turning to `O=c1ccc2cc(S(=O)(=O)Nc3ccccc3F)ccc2o1`, the activity change, negative = inhibition was inactive: 0.772%.
Under `O=C1N/C(=C/c2cccs2)C(=O)N1Cc1ccc(F)cc1` stands inactive: 12.1%.
Under `C[C@H](CO)N1C[C@H](C)[C@@H](CN(C)CC2CC2)Oc2c(NC(=O)C3CC3)cccc2C1=O` stands inactive: 1.57%; under `CCN1CCN(CCCN(Cc2cccs2)C(=S)Nc2ccccc2C)CC1`, inactive: -20.8%.
In the case of `O=C1/C(=C/c2cccs2)Sc2ccccc21` it was inactive: 14.3%.
In the case of `COC(=O)c1ccc(NC(=O)c2cccc(C)c2[N+](=O)[O-])cc1`, the activity change, negative = inhibition is inactive: 18.4%.
In the case of `CCOc1ccc(NC(=O)Nc2cccn(Cc3ccccc3)c2=O)cc1` it was inactive: 14.5%.
Under `CCC(=O)Nc1c(C)ccc2nsnc12` stands inactive: -15.9%.
Under `C#CCn1ccc(O)c(Cc2c(F)cccc2Cl)c1=O` stands inactive: -6.69%; under `Clc1ccc(-c2nnc(-c3ccccc3)c(-c3ccccc3)n2)cc1`, inactive: -9.17%; under `Cn1c(SCC(=O)N2CCN(C(=O)c3ccco3)CC2)nnc1-c1ccc(NS(C)(=O)=O)cc1`, inactive: -9.66%.
Regarding `CC1COc2ccccc2N1S(=O)(=O)c1ccc(Cl)cc1` (configuration not stated), the activity change, negative = inhibition is inactive: 6.25%.
Take `O=C(NCC(=O)N(c1cccc(F)c1)C(C(=O)NC1CCCC1)c1cccnc1)c1cccs1` (configuration not stated): the activity change, negative = inhibition is inactive: -5.1%.
As to `COc1cc(C(=O)Cc2nc3ccccc3n2C)cc(OC)c1OC`, the activity change, negative = inhibition is inactive: -6.52%.
In the case of `CC(C)C(=O)Nc1ccc(C(=O)N/N=C/c2cc(Br)cc(Br)c2O)cc1` it was inactive: -6.65%; in that of `COc1cc(CNCc2ccncc2)cc(OC)c1OC`, inactive: -16.6%; in that of `CCN1C(=O)CSc2ccc(C(=O)NC3CCCCC3)cc21`, inactive: 1.14%.
In the case of `CCCCN(C(=S)Nc1cccc(SC)c1)C1CCN(C(C)=O)CC1` it was inactive: 11.3%.
Under `O=C1[C@H]2[C@@H](c3ccc(F)cc3)N3C(=O)N(c4cccc(F)c4)C(=O)[C@@]3(Cc3ccccc3)[C@H]2C(=O)N1C1CCCCC1` stands inactive: -3.19%; under `Cc1ccc(S(=O)(=O)NC2CCCC(C(=O)O)C2)cc1` (configuration not stated), inactive: -0.865%.
For `Nc1ccc2c3c(cccc13)C(=O)N(c1ccccc1)C2=O`, the activity change, negative = inhibition was inactive: 25.2%.
Under `CN(C)S(=O)(=O)c1ccc(N2CCCC2)c(C(=O)N2CCC(C(N)=O)CC2)c1` stands inactive: 1.97%.
Under `O=C(N1CCc2[nH]c3ccccc3c2C1)C(F)(F)F` stands inactive: -4.73%.
In the case of `CCOC(=O)CC1COCCN1Cc1cn[nH]c1-c1cc(OC)c(OC)c(OC)c1` (configuration not stated) it was inactive: 5.39%; in that of `O=C(CNC(=S)N(Cc1ccccc1)Cc1cccnc1)NC1CCCCC1`, inactive: 4.54%.
Take `CN(CC(=O)OCC(=O)NCC(F)(F)F)S(=O)(=O)c1ccc(Cl)cc1`: the activity change, negative = inhibition was inactive: 4.61%.
Under `CS(=O)(=O)Nc1ccc(N2CCN(c3ccc(C(F)(F)F)cn3)CC2)nc1` stands inactive: 11.5%; under `CC1(c2ccccc2Cl)NC(=O)N(CC(=O)Nc2ccccc2OC(F)F)C1=O` (configuration not stated), inactive: -12.1%; under `COc1ccc(/C=N/Nc2nnc(Cc3ccc(OC)c(OC)c3)c(=O)[nH]2)cc1OC`, inactive: 0.391%.
Under `COc1ccc(N(CC(=O)NCc2ccco2)S(=O)(=O)c2ccc(C)cc2)cc1` stands inactive: -2.7%; under `CCN(CC(=O)N1CCCCCC1)S(=O)(=O)c1ccc(Cl)cc1`, inactive: -1.63%; under `CCN(CC)CCN1C(=O)C2C(C(=O)Nc3cccc(SC)c3)C3C=CC2(O3)C1C(=O)NC1CCCC(C)C1C` (configuration not stated), inactive: -8.31%.
In the case of `O=C(NCC1CCCCC1)c1cccc(-c2ccc(O)cc2)c1` it was inactive: -10.7%.
As to `CC(Oc1ccc(C(=O)c2ccc(F)cc2)cc1)C(=O)N1CCOCC1` (configuration not stated), the activity change, negative = inhibition was inactive: -16%.
In the case of `CCc1nnc2c(N3CCN(c4cccc(C(F)(F)F)c4)CC3)nc3ccccc3n12` it was inactive: -11.3%; in that of `O=C(NCc1ccccc1)NCc1cccs1`, inactive: -1.04%.
Under `Cc1cc(C(=O)COC(=O)C23CC4CC(CC(O)(C4)C2)C3)c(C)n1C` stands inactive: 4.38%; under `Cc1ccc(NC(=S)NCc2ccc3c(c2)cc(C)n3C)c(C)c1`, inactive: 1.53%.
Under `CCOC(=O)c1oc2ccc(S(=O)(=O)n3nc(-c4ccc(OC)cc4)cc3N)cc2c1C` stands inactive: 0.498%.
On to `CCn1c(=O)cc(OCC(=O)Nc2ccccc2C#N)c2ccccc21`, for which the activity change, negative = inhibition is inactive: -0.687%.
In the case of `CC1CCN(S(=O)(=O)c2ccc(Cl)s2)CC1`, the activity change, negative = inhibition was inactive: -5.89%.
As to `CC(C)Cc1ccc(C(C)C(=O)O)cc1` (configuration not stated), the activity change, negative = inhibition was inactive: -7.6%.
Under `O=c1oc2ccccc2cc1-c1cn2cc(Cc3ccc(F)cc3)sc2n1` stands inactive: -9.09%.
With `CCCCNC(=O)CCC(=O)NNc1nc2ccccc2c2nc(C)nn12`, the activity change, negative = inhibition is inactive: 14%.
Under `O=C(C1CC(=O)N(c2ccc(F)cc2)C1)N1CCC(c2nc3ccccc3[nH]2)CC1` (configuration not stated) stands inactive: -19.6%; under `CNc1ccc2c3c(cccc13)C(=O)N(C)C2=O`, inactive: 153%; under `COc1ccc(C(=O)N(C)Cc2ccc(C)o2)cc1OC1CCN(C(C)C)CC1`, inactive: 1.33%.
